Data as given in PubChem BioAssay AID1259308 (NCATS, 2017)

Aim: 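Knock-downs that increase output of a recombinant reporter protein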 (primary screen)
System: human HEK293 embryonic kidney cells stably expressing firefly luciferase (HEK-CMV-Luc2-Hygro)
Knock-down reagent: single siRNA against human genes, 0.8 pmol siRNA per well
Time to read-out: 72 h
Read-out: 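Reporter luminescence and viable-cell signal on separate replicate plates, given as percent of non-targeting control and median/MAD z-scores, plus per-cell luciferase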
Direction: total luciferase, z-score and total luciferase, % of control: higher = more reporter protein produced; luciferase per cell, z-score: higher = more reporter output per viable cell; viable cells, % of control: higher = more viable cells
Rule for the call: 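An siRNA counts as active if its total luciferase robust z-score exceeds 3; genes with two or more such siRNAs out of three were retested with fresh siRNAs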
Meaning of the calls: active = raised luciferase; inactive = no rise
In all, the deposit lists about 59,000 reagents; below is an unselected part. About 1,510 of all reagents (2.6%) were called active. 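Calls use total luciferase alone and ignore viability, so some active siRNAs may act by altering cell number.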 The numbers tell different reagents against one gene apart. Reagent sequences are not shown.

target,reagent no.,"total luciferase, z-score","total luciferase, % of control","luciferase per cell, z-score","viable cells, % of control",activity call
IL27RA,1,-0.935,63.3,0.00699,70.6,inactive
IL27RA,2,-1.41,53.9,-1.22,82.9,inactive
IL27RA,3,-0.742,67.1,-0.929,95.8,inactive
SPOPL,1,4.36,169,2.39,100,active
SPOPL,2,0.198,85.8,0.161,91.9,inactive
SPOPL,3,0.667,95.1,-0.282,115,inactive
OR10AG1,1,-0.339,75.1,-0.28,90.4,inactive
OR10AG1,2,-2.36,35,-1.76,62.2,inactive
OR10AG1,3,0.557,93,0.0518,102,inactive
CCDC83,1,-0.47,72.5,0.132,78.3,inactive
CCDC83,2,-0.809,65.8,-0.318,79.9,inactive
CCDC83,3,-0.304,75.8,0.194,80.5,inactive
PSMA8,1,0.055,83,0.277,86.2,inactive
PSMA8,2,-1.18,58.4,-0.994,84.8,inactive
PSMA8,3,-0.591,70.1,-1.49,116,inactive
PCNX2,1,0.32,88.2,-0.128,102,inactive
PCNX2,2,-0.458,72.8,-0.897,103,inactive
PCNX2,3,-0.989,62.2,-1.44,102,inactive
LMX1A,1,2.02,122,2.09,78.5,inactive
LMX1A,2,-0.582,70.3,-0.195,82.7,inactive
LMX1A,3,0.4,89.9,-0.128,104,inactive
MEI1,1,-1.96,42.8,-2.17,84.7,inactive
MEI1,2,0.00458,82,-0.0378,92.5,inactive
MEI1,3,0.434,90.5,0.623,85.8,inactive
BMS1P21,1,-1.81,45.8,-0.686,61.3,inactive
BMS1P21,2,-0.465,72.6,-0.257,86.8,inactive
BMS1P21,3,0.615,94.1,2.74,51.2,inactive
KIAA0753,1,-0.6,69.9,-0.999,102,inactive
KIAA0753,2,0.394,89.7,0.359,91.2,inactive
KIAA0753,3,-0.726,67.4,-0.257,80.6,inactive
NPDC1,1,-0.372,74.5,0.342,76.1,inactive
NPDC1,2,-1.57,50.7,-1.51,84.3,inactive
NPDC1,3,-0.777,66.4,0.00725,74.1,inactive
TTI1,1,-0.549,71,-0.504,90.6,inactive
TTI1,2,0.0475,82.8,-0.0254,93.2,inactive
TTI1,3,0.33,88.4,0.794,80.2,inactive
MARVELD3,1,4.53,172,3.38,79,active
MARVELD3,2,1.8,118,1.07,99.3,inactive
MARVELD3,3,0.157,85,1.37,66.3,inactive
ZNF646,1,0.915,100,0.791,90.8,inactive
ZNF646,2,-0.264,76.6,-0.317,93.1,inactive
ZNF646,3,0.903,99.9,1.48,75.6,inactive
HTRA2,1,-0.145,79,-0.291,95.3,inactive
HTRA2,2,0.122,84.3,-0.507,108,inactive
HTRA2,3,0.818,98.2,1.37,76.4,inactive
SMAD7,1,0.0065,82,-0.479,104,inactive
SMAD7,2,0.591,93.6,0.63,88.7,inactive
SMAD7,3,-0.955,62.9,0.279,65.3,inactive
OR2AG1,1,-1.19,58.2,-0.374,71.7,inactive
OR2AG1,2,-1.22,57.5,-0.927,82.1,inactive
OR2AG1,3,-0.308,75.8,-0.67,101,inactive
PAPOLG,1,0.0727,83.3,-0.59,109,inactive
PAPOLG,2,2.13,124,1.27,99.4,inactive
PAPOLG,3,-0.674,68.5,0.0185,76.2,inactive
SST,1,-1.27,56.6,-0.537,72.9,inactive
SST,2,1.05,103,0.384,104,inactive
SST,3,-0.906,63.9,1.02,54.5,inactive
